Results published in paper doi:10.1101/2022.10.10.511578 (bioRxiv, 2022).
No constants are given. Whether binding was seen depends on the method and setting. Some binding calls cover weakened binding; strength is not graded here.

The chains behind the UniProt entries cited, without tags or fusion partners.
UniProt P51681: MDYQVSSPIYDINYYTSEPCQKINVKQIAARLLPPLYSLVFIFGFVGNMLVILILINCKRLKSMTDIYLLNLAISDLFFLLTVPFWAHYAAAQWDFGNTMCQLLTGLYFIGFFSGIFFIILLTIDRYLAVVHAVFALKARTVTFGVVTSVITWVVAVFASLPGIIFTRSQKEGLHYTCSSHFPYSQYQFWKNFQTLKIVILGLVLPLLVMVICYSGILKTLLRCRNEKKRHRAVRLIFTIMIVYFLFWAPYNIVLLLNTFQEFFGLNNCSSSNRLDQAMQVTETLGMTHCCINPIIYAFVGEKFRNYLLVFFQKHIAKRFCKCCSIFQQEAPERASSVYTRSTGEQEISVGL

Target: GRK2-phosphorylated CCR5 (human) (UniProt P51681)
Experiment: negative-stain EM

- binding: binds
B1: arrestin2^1-393 (domain or fragment)
chain: MGDKGTRVFKKASPNGKLTVYLGKRDFVDHIDLVDPVDGVVLVDPEYLKERRVYVTLTCAFRYGREDLDVLGLTFRKDLFVANVQSFPPAPEDKKPLTRLQERLIKKLGEHAYPFTFEIPPNLPCSVTLQPGPEDTGKACGVDYEVKAFLAENLEEKIHKRNSVRLVIRKVQYAPERPGPQPTAETTRQFLMSDKPLHLEASLDKEIYYHGEPISVNVHVTNNTNKTVKKIKISVRQYADIVLFNTAQYKVPVAMEEADDTVAPSSTFSKVYTLTPFLANNREKRGLALDGKLKHEDTNLASSTLLREGANREILGIIVSYKVKVKLVVSRGGLLGDLASSDVAVELPFTLMHPKPKEEPPHREVPENETPVDTNLIELDTNDDDIVFEDFAR
